Measurements published in article PMC8788333.
These are yes or no findings as the source states them, for the method shown. Binding seen in cells or lysates may run through a third protein. Some results given as binding are weak or reduced against the parent protein; the word gives no strength. Where a sequence is shown, tags or fusion partners need not be part of it.

Amino acid sequences for entries named in this document (tags omitted).
UniProt O02799: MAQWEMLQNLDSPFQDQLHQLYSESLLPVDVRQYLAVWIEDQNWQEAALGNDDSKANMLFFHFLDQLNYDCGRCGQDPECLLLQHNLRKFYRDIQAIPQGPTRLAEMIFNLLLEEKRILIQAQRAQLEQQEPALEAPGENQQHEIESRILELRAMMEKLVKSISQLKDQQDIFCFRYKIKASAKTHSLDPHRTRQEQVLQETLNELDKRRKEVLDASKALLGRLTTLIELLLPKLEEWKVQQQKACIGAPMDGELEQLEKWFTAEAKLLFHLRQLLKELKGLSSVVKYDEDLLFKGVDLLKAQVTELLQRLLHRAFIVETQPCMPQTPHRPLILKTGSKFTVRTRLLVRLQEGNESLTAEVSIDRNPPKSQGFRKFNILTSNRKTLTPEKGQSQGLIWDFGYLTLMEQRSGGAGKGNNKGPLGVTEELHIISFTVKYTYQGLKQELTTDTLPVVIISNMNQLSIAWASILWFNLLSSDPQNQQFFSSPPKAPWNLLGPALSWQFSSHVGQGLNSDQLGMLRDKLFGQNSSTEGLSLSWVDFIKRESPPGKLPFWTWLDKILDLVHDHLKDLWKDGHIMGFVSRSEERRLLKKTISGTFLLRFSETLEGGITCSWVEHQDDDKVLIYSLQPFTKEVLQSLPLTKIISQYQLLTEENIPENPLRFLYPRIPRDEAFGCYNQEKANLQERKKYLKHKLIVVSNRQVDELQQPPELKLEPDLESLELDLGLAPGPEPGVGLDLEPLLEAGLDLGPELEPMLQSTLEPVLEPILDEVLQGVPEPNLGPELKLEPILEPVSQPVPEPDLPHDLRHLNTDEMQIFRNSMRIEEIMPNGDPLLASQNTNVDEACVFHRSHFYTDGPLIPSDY

Target: T1, HA-STAT1 (porcine STAT1, HA-tagged) (porcine) (UniProt Q764M5)
T1 sequence: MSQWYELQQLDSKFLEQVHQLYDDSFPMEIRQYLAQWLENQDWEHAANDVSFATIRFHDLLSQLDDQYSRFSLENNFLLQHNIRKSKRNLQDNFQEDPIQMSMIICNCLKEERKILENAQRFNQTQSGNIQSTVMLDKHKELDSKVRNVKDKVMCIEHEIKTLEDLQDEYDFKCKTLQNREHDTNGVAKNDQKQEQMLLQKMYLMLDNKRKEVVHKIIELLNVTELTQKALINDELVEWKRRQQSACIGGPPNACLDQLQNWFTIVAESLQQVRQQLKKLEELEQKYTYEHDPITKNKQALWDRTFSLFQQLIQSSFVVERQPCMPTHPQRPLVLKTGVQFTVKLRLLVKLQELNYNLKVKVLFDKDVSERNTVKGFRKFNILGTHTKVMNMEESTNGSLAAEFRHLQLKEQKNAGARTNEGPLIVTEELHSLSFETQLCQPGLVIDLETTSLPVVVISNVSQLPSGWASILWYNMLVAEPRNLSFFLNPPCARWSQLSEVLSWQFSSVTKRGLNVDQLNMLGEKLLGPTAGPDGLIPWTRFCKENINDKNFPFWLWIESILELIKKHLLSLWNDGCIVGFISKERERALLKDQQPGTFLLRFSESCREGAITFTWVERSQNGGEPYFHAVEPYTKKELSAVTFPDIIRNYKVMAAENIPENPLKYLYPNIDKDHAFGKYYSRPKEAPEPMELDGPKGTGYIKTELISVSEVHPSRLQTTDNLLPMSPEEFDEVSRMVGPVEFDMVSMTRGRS
Test: co-IP

In the case of “Myc-STAT2 (porcine STAT2, Myc-tagged) (from UniProt O02799 1-864)”, the binding is reported as “binds”.
